The other results are listed elsewhere or left out.
compound: COc1ccc(Cn2ccc3ccc(C(=O)NO)cc32)cc1; test: dose-dependent thermal stabilisation call (2D-TPP, DLPTP, 10% FDR) (binary (1 = stabilised)); higher = stabilised by the compound; conditions: system: HL-60 intact cells; concentration range 0.04-10 µM

Sequences of proteins named here, by UniProt entry; tags and fusion partners are left off. A change or cut given only in a name is not applied to a line headed by its entry.
UniProt Q6IA17: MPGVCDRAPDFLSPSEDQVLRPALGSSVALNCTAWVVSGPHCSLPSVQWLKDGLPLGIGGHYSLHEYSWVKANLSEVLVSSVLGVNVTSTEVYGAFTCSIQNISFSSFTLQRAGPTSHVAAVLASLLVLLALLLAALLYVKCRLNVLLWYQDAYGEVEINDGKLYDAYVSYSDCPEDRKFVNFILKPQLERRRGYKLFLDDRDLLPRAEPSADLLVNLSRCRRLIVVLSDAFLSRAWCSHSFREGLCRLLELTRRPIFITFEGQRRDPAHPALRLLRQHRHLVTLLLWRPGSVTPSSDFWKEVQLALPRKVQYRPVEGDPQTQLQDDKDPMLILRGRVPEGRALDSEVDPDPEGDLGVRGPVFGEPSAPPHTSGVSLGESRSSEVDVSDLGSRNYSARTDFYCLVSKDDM
UniProt O60613, whole entry: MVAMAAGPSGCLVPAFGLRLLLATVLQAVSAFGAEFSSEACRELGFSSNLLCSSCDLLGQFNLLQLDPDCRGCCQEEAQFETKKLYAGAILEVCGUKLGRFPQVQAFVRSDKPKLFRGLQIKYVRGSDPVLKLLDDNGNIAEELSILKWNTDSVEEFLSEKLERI
UniProt Q9NRX5: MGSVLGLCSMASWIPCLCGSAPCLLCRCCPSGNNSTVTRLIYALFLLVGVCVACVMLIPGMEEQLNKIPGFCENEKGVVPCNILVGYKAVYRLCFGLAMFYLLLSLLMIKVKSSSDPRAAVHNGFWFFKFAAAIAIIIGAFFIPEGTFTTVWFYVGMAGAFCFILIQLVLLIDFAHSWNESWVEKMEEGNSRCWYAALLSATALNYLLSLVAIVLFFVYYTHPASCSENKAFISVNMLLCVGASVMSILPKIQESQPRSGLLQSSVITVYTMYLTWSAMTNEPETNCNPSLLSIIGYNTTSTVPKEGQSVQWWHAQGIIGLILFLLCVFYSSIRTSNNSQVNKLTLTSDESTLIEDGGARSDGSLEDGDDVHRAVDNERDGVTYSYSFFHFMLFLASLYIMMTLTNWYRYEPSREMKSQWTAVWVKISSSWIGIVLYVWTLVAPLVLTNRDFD
UniProt P11166: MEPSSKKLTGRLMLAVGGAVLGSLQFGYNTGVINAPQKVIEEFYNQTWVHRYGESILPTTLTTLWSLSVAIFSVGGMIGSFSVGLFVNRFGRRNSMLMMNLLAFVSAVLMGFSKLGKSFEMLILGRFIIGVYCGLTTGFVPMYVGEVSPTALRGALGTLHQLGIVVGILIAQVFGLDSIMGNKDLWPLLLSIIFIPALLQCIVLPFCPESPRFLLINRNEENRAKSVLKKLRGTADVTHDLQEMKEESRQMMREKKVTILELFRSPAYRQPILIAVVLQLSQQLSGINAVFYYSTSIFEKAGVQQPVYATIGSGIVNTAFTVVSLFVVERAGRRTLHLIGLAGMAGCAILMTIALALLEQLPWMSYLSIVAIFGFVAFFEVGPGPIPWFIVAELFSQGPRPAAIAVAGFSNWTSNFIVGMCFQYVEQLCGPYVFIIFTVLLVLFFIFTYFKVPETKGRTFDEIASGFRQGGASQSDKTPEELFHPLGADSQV
UniProt P50452: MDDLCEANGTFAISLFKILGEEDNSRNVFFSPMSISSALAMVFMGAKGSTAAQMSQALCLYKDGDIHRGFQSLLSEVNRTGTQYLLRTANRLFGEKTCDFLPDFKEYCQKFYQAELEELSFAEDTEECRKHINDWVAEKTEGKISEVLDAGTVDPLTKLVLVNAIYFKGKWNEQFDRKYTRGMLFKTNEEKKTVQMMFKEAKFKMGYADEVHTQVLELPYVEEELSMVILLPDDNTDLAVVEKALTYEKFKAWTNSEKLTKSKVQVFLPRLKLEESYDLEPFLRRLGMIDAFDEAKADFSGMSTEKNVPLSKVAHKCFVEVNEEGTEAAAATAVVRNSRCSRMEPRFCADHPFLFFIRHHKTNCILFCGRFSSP
UniProt Q15436: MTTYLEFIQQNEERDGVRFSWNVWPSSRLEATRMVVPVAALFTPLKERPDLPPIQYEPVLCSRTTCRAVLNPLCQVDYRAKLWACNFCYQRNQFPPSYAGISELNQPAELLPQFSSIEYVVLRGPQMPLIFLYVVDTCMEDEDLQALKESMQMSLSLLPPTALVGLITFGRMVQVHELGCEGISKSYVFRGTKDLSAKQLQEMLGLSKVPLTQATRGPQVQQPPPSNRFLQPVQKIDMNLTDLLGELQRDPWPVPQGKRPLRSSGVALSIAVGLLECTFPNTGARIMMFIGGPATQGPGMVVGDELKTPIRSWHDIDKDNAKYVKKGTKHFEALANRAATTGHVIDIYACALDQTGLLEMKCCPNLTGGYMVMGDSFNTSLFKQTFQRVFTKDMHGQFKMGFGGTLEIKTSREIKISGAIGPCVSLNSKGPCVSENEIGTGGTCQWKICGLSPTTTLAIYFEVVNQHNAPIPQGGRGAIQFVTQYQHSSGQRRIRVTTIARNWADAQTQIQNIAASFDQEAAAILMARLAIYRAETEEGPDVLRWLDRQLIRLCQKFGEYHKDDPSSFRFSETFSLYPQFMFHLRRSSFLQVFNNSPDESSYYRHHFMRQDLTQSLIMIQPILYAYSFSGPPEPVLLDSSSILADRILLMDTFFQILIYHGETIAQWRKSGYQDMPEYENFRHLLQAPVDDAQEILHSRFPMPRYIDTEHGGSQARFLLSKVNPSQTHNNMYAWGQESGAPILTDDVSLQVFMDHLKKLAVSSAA
UniProt O43772: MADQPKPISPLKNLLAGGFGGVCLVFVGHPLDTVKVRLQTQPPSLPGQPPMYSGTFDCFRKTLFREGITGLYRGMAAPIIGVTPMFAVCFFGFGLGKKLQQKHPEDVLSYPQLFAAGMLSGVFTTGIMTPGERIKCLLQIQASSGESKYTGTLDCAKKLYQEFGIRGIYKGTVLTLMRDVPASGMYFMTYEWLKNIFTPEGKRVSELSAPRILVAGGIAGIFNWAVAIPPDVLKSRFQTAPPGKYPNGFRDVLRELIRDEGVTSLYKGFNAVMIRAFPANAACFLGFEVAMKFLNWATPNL
UniProt P21912: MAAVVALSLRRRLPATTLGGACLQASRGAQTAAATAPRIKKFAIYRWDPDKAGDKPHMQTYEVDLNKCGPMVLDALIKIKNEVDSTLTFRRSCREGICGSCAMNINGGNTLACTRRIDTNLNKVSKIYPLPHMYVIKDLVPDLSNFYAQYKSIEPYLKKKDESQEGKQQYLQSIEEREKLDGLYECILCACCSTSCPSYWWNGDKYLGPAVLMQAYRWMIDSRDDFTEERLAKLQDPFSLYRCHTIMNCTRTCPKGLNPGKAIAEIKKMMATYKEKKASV
UniProt Q86SK9: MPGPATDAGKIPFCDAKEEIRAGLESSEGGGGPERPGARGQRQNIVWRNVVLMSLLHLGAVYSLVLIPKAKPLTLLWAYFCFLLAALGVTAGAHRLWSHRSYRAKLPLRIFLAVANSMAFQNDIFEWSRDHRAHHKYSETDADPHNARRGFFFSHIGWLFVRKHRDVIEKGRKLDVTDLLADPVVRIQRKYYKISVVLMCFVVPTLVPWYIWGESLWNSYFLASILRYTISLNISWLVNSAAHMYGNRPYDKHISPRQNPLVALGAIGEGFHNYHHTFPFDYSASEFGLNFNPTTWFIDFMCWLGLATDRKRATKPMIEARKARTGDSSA
UniProt Q8WUM9: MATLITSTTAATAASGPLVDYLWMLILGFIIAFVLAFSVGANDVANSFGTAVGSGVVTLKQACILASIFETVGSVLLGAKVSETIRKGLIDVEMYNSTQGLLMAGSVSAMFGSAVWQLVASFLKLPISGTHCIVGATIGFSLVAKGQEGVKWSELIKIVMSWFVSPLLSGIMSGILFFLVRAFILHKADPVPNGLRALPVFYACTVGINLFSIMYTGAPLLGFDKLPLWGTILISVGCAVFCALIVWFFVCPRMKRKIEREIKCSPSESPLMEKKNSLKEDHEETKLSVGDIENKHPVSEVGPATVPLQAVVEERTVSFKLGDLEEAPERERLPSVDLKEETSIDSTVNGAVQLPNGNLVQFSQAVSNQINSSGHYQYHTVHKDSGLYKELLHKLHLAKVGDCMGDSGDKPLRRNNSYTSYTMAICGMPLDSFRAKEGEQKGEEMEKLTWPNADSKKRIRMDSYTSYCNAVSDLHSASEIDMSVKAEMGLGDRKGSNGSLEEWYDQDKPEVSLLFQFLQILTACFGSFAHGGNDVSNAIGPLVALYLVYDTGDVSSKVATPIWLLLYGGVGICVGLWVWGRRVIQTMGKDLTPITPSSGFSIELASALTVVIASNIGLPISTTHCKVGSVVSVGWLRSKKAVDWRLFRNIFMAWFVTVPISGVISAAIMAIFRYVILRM
UniProt O95486: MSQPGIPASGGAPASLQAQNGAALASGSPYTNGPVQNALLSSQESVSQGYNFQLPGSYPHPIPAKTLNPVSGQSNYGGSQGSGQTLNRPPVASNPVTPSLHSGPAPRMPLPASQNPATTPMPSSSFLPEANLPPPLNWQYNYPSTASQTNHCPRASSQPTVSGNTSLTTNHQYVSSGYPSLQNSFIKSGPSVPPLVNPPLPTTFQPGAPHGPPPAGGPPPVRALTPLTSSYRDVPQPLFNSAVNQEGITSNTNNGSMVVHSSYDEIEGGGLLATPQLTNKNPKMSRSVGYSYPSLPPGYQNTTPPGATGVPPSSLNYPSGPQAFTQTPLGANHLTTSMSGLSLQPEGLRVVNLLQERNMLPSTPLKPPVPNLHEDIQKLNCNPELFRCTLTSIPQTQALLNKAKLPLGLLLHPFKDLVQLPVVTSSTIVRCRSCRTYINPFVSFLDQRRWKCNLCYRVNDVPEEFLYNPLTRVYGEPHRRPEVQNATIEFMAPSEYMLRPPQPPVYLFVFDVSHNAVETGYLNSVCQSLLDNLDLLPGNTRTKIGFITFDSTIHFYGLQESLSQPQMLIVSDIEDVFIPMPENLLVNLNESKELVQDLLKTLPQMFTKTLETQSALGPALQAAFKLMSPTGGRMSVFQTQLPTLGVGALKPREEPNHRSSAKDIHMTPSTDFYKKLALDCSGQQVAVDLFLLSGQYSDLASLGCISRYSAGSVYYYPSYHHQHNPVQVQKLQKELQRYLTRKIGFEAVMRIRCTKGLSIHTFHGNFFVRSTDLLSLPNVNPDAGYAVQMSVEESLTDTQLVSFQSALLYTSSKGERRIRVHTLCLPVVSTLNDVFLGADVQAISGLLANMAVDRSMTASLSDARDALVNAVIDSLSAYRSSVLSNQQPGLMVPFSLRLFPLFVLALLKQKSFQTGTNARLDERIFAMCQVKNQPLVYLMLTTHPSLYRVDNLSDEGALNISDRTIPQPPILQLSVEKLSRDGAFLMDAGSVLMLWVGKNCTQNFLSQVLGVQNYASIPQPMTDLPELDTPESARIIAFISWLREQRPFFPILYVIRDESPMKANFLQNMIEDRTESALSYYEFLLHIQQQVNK
UniProt Q96H78: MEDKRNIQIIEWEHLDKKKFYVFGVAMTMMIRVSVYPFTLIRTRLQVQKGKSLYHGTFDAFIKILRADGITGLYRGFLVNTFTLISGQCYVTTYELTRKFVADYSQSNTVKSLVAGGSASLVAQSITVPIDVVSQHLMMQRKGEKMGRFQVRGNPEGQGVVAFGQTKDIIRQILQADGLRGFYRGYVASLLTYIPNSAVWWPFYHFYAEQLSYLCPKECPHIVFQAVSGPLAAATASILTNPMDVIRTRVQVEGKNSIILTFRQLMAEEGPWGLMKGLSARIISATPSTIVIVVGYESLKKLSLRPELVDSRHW
UniProt Q9NR31: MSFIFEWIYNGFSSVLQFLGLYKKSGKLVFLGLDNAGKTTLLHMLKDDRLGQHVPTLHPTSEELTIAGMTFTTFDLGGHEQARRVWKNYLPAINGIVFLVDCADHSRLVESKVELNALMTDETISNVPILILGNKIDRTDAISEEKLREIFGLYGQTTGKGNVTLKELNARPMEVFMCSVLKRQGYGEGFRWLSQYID
UniProt O75845: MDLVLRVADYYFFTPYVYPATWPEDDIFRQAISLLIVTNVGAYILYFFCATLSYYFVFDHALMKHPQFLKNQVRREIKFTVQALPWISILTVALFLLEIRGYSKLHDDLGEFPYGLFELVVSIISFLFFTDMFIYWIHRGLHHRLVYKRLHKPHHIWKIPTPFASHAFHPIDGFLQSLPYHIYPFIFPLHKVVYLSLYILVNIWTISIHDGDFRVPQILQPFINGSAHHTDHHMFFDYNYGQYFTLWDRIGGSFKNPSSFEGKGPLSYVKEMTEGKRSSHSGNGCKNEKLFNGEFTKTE
UniProt Q8N1S5: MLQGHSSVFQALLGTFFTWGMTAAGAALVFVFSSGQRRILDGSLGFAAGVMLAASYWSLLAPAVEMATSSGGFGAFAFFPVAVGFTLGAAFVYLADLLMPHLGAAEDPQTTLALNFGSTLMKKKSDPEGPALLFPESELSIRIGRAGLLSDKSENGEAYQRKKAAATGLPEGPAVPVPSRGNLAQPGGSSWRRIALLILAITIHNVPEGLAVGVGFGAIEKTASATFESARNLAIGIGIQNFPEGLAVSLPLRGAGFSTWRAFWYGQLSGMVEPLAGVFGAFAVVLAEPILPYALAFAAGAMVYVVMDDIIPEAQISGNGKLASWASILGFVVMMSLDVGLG

Target	dose-dependent thermal stabilisation call
SCRIB	inactive: 0
SIGIRR (UniProt Q6IA17)	inactive: 0
SEP15 (UniProt O60613)	inactive: 0
SATB1 (UniProt Q01826)	inactive: 0
SFXN1 (UniProt Q9H9B4)	active: 1
SLC16A7 (UniProt O60669)	inactive: 0
SDSL (UniProt Q96GA7)	inactive: 0
SERINC1 (UniProt Q9NRX5)	inactive: 0
SH3GL1 (UniProt Q99961)	inactive: 0
SEDLP	inactive: 0
SLC2A1 (UniProt P11166)	inactive: 0
SLC1A4 (UniProt P43007)	inactive: 0
SERPINB8 (UniProt P50452)	inactive: 0
SBNO1 (UniProt A3KN83)	inactive: 0
SLC25A12 (UniProt O75746)	active: 1
SIP1	inactive: 0
SEC23A (UniProt Q15436)	inactive: 0
SLC25A20 (UniProt O43772)	inactive: 0
SFRS4 (UniProt Q08170)	inactive: 0

Shown as comma-separated lines: entries from further up
Target,dose-dependent thermal stabilisation call
SIP1,inactive: 0
SEC23A (UniProt Q15436),inactive: 0

(next part)

Target	dose-dependent thermal stabilisation call
SDHB (UniProt P21912)	inactive: 0
SKAP2 (UniProt O75563)	inactive: 0
SLC25A33 (UniProt Q9BSK2)	inactive: 0
SCD5 (UniProt Q86SK9)	inactive: 0
SLC20A1 (UniProt Q8WUM9)	inactive: 0
SLC25A4 (UniProt P12235)	inactive: 0
SEC24A (UniProt O95486)	inactive: 0
SEPN1 (UniProt Q9NZV5)	inactive: 0
SLC25A44 (UniProt Q96H78)	inactive: 0
SEH1L (UniProt Q96EE3)	inactive: 0
SAR1A (UniProt Q9NR31)	inactive: 0
SFXN3 (UniProt Q9BWM7)	inactive: 0
SATB2 (UniProt Q9UPW6)	inactive: 0
SFRS14 (UniProt Q8IX01)	inactive: 0
SERAC1 (UniProt Q96JX3)	inactive: 0
SC5DL (UniProt O75845)	inactive: 0
SLC25A32 (UniProt Q9H2D1)	inactive: 0
SENP6 (UniProt Q9GZR1)	inactive: 0
SLC39A11 (UniProt Q8N1S5)	inactive: 0
